These are yes or no findings as the source states them, for the method shown. Binding seen in cells or lysates may run through a third protein. Some results given as binding are weak or reduced against the parent protein; the word gives no strength.
T1: C1q/TNF-related protein 9 (not stated (endogenous in LV tissue; mouse and rat hearts were both used)) (UniProt Q4ZJN1)
T1 sequence: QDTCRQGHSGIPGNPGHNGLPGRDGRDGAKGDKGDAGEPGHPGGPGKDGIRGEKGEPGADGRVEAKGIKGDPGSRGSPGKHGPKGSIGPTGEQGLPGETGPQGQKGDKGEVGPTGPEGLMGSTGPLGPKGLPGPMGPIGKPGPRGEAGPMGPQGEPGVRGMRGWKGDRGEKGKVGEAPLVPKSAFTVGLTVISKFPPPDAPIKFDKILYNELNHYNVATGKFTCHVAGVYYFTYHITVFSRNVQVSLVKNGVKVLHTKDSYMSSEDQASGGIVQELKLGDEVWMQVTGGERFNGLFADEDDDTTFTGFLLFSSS

The chains behind the UniProt entries cited, without tags or fusion partners. Residues count along the entry.
UniProt P14211, residues 18-416: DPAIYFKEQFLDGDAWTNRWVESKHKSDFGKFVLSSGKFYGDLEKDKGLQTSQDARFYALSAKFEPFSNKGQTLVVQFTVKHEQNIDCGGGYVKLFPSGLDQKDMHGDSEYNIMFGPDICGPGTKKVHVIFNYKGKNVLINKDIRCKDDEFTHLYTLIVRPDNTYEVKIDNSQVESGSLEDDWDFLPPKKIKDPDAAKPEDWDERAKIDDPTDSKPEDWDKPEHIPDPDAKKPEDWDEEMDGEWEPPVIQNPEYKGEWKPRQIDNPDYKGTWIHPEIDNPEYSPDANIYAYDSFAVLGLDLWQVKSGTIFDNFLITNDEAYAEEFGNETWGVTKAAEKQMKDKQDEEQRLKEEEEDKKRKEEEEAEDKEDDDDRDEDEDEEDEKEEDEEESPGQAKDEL

B1: C1q/TNF-related protein 9 (protein, UniProt Q4ZJN1-1 20-333)
chain: T1 sequence

Legend:
[1] = molecular target: T1, C1q/TNF-related protein 9 (not stated (endogenous in LV tissue; mouse and rat hearts were both used)); experiment: co-IP; LV tissue lysate pre-cleared with Dynabeads Protein G or Protein A (4 °C, 2 h), then incubated with normal IgG, anti-CTRP9 or anti-CRT antibody and beads at 4 °C overnight; eluate analysed by Western blot
[2] = molecular target: calreticulin (not stated (endogenous in LV tissue; mouse and rat hearts were both used)) (UniProt P14211); experiment: as above

Molecule | binding [1] | binding [2]
calreticulin (from UniProt P14211 18-416) | binds | 
B1 |  | binds
